Reference: PubChem BioAssay AID1259326 (Drosophila RNAi Screening Center, 2017)
Here is one part, drawn at random, of 573 reagents tested. 39 of all reagents (6.8%) count as active. 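All actives have raised ATP, meaning more surviving cells; in these data active calls sit at averaged z-scores near 1.5 or above.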 The raw values are shown without normalisation. Entries without a mark were called inactive. A plus sign joins genes that one reagent is predicted to hit. Not stated in the record: the amount of reagent.

Screen: 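Knock-downs that shift cellular ATP after a high zinc chloride dose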
Cell system: Drosophila S2R+ cells
Knock-down reagent: long dsRNA against Drosophila genes
Timing: about 5 days (4 days of RNAi, then 1 day of zinc)
Treatment: zinc chloride added to 15 mM final for one day
Measured: 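Cellular ATP measured by luciferase light as a viable-cell proxy, after 4 days of RNAi and 1 day in 15 mM zinc chloride; replicate z-scores averaged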
Scale: averaged z-score: higher = more ATP than other wells, i.e. more surviving cells, after zinc; ATP luminescence: higher = more ATP, i.e. more surviving cells
Hit rule: 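Active if the averaged z-score exceeds 1.5 or falls under -1.5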

For Lst8 [DRSC18262], how do the results read?
averaged z-score: 0.285; ATP luminescence, replicate 1: 76496; ATP luminescence, replicate 2: 1.07e5

What is on record for Lst8 [DRSC41178]?
averaged z-score: -0.198; ATP luminescence, replicate 1: 61884; ATP luminescence, replicate 2: 75690

For CG3803 [DRSC04420], how do the results read?
averaged z-score: 0.235; ATP luminescence, replicate 1: 1.12e5; ATP luminescence, replicate 2: 76074

With CG3803 [DRSC39915], what does the deposit list?
averaged z-score: -0.232; ATP luminescence, replicate 1: 79240; ATP luminescence, replicate 2: 71591

How did the screen score CG3803 [DRSC41183]?
averaged z-score: -0.257; ATP luminescence, replicate 1: 67217; ATP luminescence, replicate 2: 76736

How did the screen score p38a [DRSC16743]?
averaged z-score: -0.281; ATP luminescence, replicate 1: 90253; ATP luminescence, replicate 2: 72500

With p38a [DRSC36706], how do the results read?
averaged z-score: -0.343; ATP luminescence, replicate 1: 77937; ATP luminescence, replicate 2: 70956

For p38a [DRSC37322], what was measured?
averaged z-score: -0.0563; ATP luminescence, replicate 1: 77096; ATP luminescence, replicate 2: 70373

With DIP2 [DRSC08582], how do the results read?
averaged z-score: -0.224; ATP luminescence, replicate 1: 87972; ATP luminescence, replicate 2: 78537

For DIP2 [DRSC36466], what does the deposit list?
averaged z-score: -0.379; ATP luminescence, replicate 1: 77079; ATP luminescence, replicate 2: 62758

How did the screen score DIP2 [DRSC41216]?
averaged z-score: 0.159; ATP luminescence, replicate 1: 75947; ATP luminescence, replicate 2: 81046

4 entries already listed, ordered by “ATP luminescence, replicate 1”, ascending:
p38a [DRSC37322] | averaged z-score = -0.0563; ATP luminescence, replicate 1 = 77096; ATP luminescence, replicate 2 = 70373
p38a [DRSC36706] | averaged z-score = -0.343; ATP luminescence, replicate 1 = 77937; ATP luminescence, replicate 2 = 70956
DIP2 [DRSC08582] | averaged z-score = -0.224; ATP luminescence, replicate 1 = 87972; ATP luminescence, replicate 2 = 78537
p38a [DRSC16743] | averaged z-score = -0.281; ATP luminescence, replicate 1 = 90253; ATP luminescence, replicate 2 = 72500

Further reagents:
What did the screen give for Pde11 [DRSC02028]?
averaged z-score: 0.17; ATP luminescence, replicate 1: 1.00e5; ATP luminescence, replicate 2: 83632

How did the screen score Pde11 [DRSC26665]?
averaged z-score: -0.03; ATP luminescence, replicate 1: 81367; ATP luminescence, replicate 2: 75724

Which result is listed for Pde11 [DRSC37337]?
averaged z-score: 0.464; ATP luminescence, replicate 1: 80648; ATP luminescence, replicate 2: 80664

What did the screen give for Chc [DRSC20229]?
averaged z-score: 1.61 (active); ATP luminescence, replicate 1: 1.46e5; ATP luminescence, replicate 2: 1.07e5

For Chc [DRSC34418], what was measured?
averaged z-score: 1.36; ATP luminescence, replicate 1: 1.21e5; ATP luminescence, replicate 2: 93547

What did the screen give for Chc [DRSC34419]?
averaged z-score: 0.865; ATP luminescence, replicate 1: 86188; ATP luminescence, replicate 2: 81762

With CG46280 + CG46281 [DRSC14505], how do the results read?
averaged z-score: 0.102; ATP luminescence, replicate 1: 89601; ATP luminescence, replicate 2: 84661

What is on record for CG46280 + CG46281 [DRSC41167]?
averaged z-score: -0.271; ATP luminescence, replicate 1: 66394; ATP luminescence, replicate 2: 71556

How did the screen score Nedd4 [DRSC26365]?
averaged z-score: -0.0223; ATP luminescence, replicate 1: 96086; ATP luminescence, replicate 2: 72911

Which result is listed for Nedd4 [DRSC36367]?
averaged z-score: -0.157; ATP luminescence, replicate 1: 70339; ATP luminescence, replicate 2: 72774

How did the screen score Nedd4 [DRSC38426]?
averaged z-score: -0.311; ATP luminescence, replicate 1: 77731; ATP luminescence, replicate 2: 66583

For Lon [DRSC11049], how do the results read?
averaged z-score: -0.0269; ATP luminescence, replicate 1: 99843; ATP luminescence, replicate 2: 72826

What is on record for Lon [DRSC26015]?
averaged z-score: 0.421; ATP luminescence, replicate 1: 89292; ATP luminescence, replicate 2: 76576

Which result is listed for Lon [DRSC41205]?
averaged z-score: 0.489; ATP luminescence, replicate 1: 79155; ATP luminescence, replicate 2: 89258

For Rab8 [DRSC11261], what was measured?
averaged z-score: 0.116; ATP luminescence, replicate 1: 99071; ATP luminescence, replicate 2: 71608

How did the screen score Rab8 [DRSC31658]?
averaged z-score: -0.697; ATP luminescence, replicate 1: 74489; ATP luminescence, replicate 2: 59380

What did the screen give for Rab8 [DRSC31659]?
averaged z-score: -0.994; ATP luminescence, replicate 1: 55796; ATP luminescence, replicate 2: 54390

With UBL3 [DRSC23292], what was measured?
averaged z-score: -0.349; ATP luminescence, replicate 1: 84477; ATP luminescence, replicate 2: 74506

With UBL3 [DRSC37210], what does the deposit list?
averaged z-score: 0.0406; ATP luminescence, replicate 1: 82602; ATP luminescence, replicate 2: 74644

For UBL3 [DRSC41255], how do the results read?
averaged z-score: -0.417; ATP luminescence, replicate 1: 60272; ATP luminescence, replicate 2: 70510
